The target in this assay is CD33, endogenous on freshly isolated human blood monocytes (human (endogenous in blood monocytes)). The experiment in a line: proximity ligation; Duolink on freshly isolated human monocytes, untreated or treated with C1q (20 ug/ml) for 40 min, fixed in paraformaldehyde; primary antibodies to the two receptors.

Results are given in words; binding and its absence hold for the method and conditions named. In cells and extracts the contact can be indirect. A result given as binding can be weak or reduced; the word gives no strength.

B1: CD14, endogenous on human blood monocytes (receptor, UniProt P08571 20-345)
chain: TTPEPCELDDEDFRCVCNFSEPQPDWSEAFQCVSAVEVEIHAGGLNLEPFLKRVDADADPRQYADTVKALRVRRLTVGAAQVPAQLLVGALRVLAYSRLKELTLEDLKITGTMPPLPLEATGLALSSLRLRNVSWATGRSWLAELQQWLKPGLKVLSIAQAHSPAFSCEQVRAFPALTSLDLSDNPGLGERGLMAALCPHKFPAIQNLALRNTGMETPTGVCAALAAAGVQPHSLDLSHNSLRATVNPSAPRCMWSSALNSLNLSFAGLEQVPKGLPAKLRVLDLSCNRLNRAPQPDELPEVDNLTLDGNPFLVPGTALPHEGSMN
For the molecule B1, the binding entry is listed as “binds”.

Source of the values: paper PMC5412647.
